Values quoted from earlier work, collected in US20070082063A1, “Risk assessment and correction of membrane damage of the upper GI tract” (priority 2005, published 2007).

Details: dogs

## CCCCC/C=C\C/C=C\C/C=C\C/C=C\CCCC(=O)O [ARA, arachidonic acid]
  level in plasma phospholipids: 20-30%
  level in red cell membranes: 18-25%
